# Measured values published in US11458200B2, “Constructs, agents, and methods for facilitated ablation of cardiac tissue” (priority 2016, dated 2022).
# Tested on: epicardium
# Experiment: Open-chest rodent survival model of epicardial RF ablation after IV quercetin
# Format: in vivo
# Settings: 24 hours after RFA group, 3 W, IV 10 mg/kg
# Protocol: Using an open-chest rodent survival model and a custom-made catheter, RF was applied to the epicardium at 3 W for 20 seconds after infusion of a HSP inhibitor, intravenous quercetin (n=20, 10 mg/kg), or control (n=20). Animals were sacrificed at 1 (n=10 each) and 24 hours (n=10 each) after ablation. RFA lesions were stained and analyzed under microscopy.
structure (smiles),measurement,setting,value
"O=c1c(O)c(-c2ccc(O)c(O)c2)oc2cc(O)cc(O)c12 [Quercetin, 3,3′,4′,5,7-pentahydroxyflavone]",Impedance Drop,,401 ± 105
same,Initial Impedance,,597 ± 123
same,Peak temp,,75 ± 8
same,Impedance Drop,listed as quercetin,not different
same,Initial Impedance,listed as quercetin,not different
same,Peak temp,listed as quercetin,not different
